Test results published in article PMC3400559.
Results are given in words; binding and its absence hold for the method and conditions named. Some results given as binding are weak or reduced against the parent protein; the word gives no strength.

Biological target: MFAP-1 (C. elegans microfibrillar-associated protein 1) (C. elegans) (UniProt Q93712)
Assay: two-hybrid; screen: bait full-length MFAP-1 in pGBK T7, preys from a pACT2.2 C. elegans library, S. cerevisiae PJ69-4A, growth on SD-Leu-Trp-His with 5 mM 3-AT; clones isolated, retested, and no survival with the pGBK T7 empty vector

B1: MFAP-1 (C. elegans microfibrillar-associated protein 1) (protein, UniProt Q93712 1-466)
chain: MGDYVPGFEQRESDNRSFGHSRLPTLGAIPIKNEKGQTVMQKVKVSRYVAGKAPEYARNYDSDSSESDRETDRDDDRRRRRRRESSDEEDRRRHRRHEDYGRRRQVEKPEVLGKVEDESSENEQESEEDEEKQEERRERARMRRLELHENNREKDEEQEDSAESDEEDFERRRQMLRDRAIKREEEIKREIKEELEEDDVEEEEEEESSEEEDSDEDDDPVPRLKPIFTRKKDRITLQEAEKEKEKEILKKIEDEKRAEERKRESAKLVEKVLQEEEAAEKRKTEDRVDLSSVLTDDETENMAYEAWKLREMKRLKRNRDEREEAAREKAELDKIHAMSEEERLKYLRLNPKVITNKQDKGKYKFLQKYFHRGAFFLDEEDEVLKRNFAEATNDDQFDKTILPKVMQVKNFGKASRTKYTHLTEEDTTDHQGVWASTNQLNSQFSTKRAGGSRPVFERPATKKRKN
Which binding does the source give for B1 here?
Its binding is “binds”.
